# Where a name gives a salt, the structure may show the parent alone. Some of the results follow. Hit calls seldom repeat between salt and free forms of one compound.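 In K562 cells expressing nanoluciferase-fused kinases, luminescence was recorded at 4 h intervals between 2 and 18 h, normalized as percent of control with DMSO at 100% and a positive control at 0%. A significant (2 sigma) signal drop marks a time point as decreased. The authors' rule for a hit is not shown and takes in more than the number of time points.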
# By UniProt entry, the sequences of proteins in these tests, tags left out. Where a name states a change or a piece, a line headed by the entry shows the natural chain unless it says otherwise.
# UniProt P29317, whole entry: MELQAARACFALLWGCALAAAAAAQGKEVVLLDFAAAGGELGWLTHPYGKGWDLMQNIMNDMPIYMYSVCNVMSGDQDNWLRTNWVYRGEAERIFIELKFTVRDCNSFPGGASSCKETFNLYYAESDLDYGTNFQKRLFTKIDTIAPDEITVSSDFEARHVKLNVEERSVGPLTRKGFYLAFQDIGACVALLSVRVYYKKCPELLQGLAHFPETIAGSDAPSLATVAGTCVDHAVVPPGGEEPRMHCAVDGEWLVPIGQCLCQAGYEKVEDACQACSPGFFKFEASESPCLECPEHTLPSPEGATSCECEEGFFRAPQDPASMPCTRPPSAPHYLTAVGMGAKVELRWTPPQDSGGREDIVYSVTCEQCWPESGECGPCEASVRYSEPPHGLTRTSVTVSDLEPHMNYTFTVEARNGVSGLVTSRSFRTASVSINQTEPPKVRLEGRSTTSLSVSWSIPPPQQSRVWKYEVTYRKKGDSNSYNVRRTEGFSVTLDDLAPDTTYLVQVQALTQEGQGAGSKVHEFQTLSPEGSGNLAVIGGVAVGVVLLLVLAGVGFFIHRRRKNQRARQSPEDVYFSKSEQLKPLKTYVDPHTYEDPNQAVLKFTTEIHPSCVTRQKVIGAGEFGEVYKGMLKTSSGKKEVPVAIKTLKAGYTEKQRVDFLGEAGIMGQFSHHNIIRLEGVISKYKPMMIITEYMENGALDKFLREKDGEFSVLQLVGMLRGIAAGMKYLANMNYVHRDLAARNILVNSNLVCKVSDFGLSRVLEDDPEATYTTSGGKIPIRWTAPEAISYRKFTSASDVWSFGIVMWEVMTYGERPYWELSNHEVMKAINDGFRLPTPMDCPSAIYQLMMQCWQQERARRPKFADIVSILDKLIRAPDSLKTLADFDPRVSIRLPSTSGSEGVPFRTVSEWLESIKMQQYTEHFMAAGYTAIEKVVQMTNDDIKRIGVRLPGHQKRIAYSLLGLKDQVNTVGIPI
# UniProt P21860, whole entry: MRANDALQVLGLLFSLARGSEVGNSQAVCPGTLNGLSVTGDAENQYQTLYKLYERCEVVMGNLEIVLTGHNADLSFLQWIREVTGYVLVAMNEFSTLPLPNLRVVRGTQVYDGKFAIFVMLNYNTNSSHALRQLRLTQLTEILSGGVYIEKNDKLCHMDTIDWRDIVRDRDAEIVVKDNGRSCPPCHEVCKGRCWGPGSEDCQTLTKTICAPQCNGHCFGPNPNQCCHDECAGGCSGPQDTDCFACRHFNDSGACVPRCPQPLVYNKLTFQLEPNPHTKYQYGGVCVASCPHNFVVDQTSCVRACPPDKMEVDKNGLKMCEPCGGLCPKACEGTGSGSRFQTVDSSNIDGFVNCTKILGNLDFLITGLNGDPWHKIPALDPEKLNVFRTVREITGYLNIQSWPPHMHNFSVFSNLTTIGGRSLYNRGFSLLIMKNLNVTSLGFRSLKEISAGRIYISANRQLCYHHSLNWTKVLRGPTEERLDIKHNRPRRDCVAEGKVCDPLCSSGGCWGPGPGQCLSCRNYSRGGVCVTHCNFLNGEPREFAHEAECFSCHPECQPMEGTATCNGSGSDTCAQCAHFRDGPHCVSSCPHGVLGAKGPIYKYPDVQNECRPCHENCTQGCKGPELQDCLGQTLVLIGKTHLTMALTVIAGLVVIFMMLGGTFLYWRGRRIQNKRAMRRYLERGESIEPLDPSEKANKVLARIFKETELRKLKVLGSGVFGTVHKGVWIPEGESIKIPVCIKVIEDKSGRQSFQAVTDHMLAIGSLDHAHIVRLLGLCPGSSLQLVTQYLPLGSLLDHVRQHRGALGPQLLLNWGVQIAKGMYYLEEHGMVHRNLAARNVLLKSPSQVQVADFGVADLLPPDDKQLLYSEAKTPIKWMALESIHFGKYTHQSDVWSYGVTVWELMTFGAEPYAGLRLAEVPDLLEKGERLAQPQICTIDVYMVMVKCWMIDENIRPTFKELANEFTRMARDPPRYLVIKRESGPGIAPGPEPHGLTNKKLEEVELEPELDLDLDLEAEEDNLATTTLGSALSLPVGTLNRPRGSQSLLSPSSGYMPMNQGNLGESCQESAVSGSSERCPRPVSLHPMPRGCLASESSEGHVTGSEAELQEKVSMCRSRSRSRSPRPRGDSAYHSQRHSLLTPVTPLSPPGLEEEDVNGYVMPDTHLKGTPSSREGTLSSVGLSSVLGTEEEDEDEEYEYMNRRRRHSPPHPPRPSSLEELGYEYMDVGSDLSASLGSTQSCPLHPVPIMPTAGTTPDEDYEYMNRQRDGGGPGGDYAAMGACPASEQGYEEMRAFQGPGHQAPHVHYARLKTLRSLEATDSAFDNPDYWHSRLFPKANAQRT
# UniProt P06241, whole entry, looked up: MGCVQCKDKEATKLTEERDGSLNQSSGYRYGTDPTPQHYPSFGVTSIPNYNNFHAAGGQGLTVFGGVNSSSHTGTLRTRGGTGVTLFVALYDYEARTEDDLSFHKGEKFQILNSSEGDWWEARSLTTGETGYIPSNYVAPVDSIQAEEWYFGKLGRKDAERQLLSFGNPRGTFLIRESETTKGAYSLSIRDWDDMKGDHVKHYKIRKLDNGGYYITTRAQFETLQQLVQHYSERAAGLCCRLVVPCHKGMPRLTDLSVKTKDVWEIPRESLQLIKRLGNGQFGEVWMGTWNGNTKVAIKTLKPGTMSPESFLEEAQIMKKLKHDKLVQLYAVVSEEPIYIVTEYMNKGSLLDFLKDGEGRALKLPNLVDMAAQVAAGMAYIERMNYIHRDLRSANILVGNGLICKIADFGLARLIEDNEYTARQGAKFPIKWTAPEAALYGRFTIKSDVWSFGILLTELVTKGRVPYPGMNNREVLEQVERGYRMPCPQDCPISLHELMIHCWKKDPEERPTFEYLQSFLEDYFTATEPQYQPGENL
# UniProt P14616: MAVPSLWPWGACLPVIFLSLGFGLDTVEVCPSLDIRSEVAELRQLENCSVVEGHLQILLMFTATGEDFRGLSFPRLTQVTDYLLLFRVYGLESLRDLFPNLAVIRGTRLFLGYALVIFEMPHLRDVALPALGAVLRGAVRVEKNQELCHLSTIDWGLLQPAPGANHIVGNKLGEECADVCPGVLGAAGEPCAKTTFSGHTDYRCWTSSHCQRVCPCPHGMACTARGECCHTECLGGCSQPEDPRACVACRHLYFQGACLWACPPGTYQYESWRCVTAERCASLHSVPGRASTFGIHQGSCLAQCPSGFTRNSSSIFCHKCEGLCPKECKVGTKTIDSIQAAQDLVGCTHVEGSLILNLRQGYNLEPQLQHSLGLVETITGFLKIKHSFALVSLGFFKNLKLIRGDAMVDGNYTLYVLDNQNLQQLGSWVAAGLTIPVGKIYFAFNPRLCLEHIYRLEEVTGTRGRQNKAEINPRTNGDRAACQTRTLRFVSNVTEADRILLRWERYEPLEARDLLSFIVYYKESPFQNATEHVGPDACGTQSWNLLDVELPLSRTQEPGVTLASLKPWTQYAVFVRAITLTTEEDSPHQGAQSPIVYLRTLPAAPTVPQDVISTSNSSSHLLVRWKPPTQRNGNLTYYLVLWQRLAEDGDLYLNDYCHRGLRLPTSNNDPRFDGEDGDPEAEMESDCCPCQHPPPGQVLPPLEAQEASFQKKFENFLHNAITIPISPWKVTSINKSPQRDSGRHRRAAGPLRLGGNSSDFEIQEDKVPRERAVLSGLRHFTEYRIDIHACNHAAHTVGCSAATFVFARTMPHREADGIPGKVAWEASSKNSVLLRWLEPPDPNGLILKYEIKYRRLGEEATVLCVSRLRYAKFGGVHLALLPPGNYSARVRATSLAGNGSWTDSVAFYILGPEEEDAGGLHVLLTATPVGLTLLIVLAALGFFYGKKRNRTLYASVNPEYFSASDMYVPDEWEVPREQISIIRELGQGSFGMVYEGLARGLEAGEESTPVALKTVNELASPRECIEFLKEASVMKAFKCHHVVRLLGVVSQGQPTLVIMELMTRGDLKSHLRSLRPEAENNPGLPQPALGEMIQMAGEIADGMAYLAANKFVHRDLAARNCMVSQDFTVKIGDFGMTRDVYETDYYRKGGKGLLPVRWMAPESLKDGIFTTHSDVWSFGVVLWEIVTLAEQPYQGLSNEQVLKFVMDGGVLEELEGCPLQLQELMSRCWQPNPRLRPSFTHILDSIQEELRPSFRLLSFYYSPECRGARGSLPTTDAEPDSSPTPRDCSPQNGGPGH
# UniProt P23458: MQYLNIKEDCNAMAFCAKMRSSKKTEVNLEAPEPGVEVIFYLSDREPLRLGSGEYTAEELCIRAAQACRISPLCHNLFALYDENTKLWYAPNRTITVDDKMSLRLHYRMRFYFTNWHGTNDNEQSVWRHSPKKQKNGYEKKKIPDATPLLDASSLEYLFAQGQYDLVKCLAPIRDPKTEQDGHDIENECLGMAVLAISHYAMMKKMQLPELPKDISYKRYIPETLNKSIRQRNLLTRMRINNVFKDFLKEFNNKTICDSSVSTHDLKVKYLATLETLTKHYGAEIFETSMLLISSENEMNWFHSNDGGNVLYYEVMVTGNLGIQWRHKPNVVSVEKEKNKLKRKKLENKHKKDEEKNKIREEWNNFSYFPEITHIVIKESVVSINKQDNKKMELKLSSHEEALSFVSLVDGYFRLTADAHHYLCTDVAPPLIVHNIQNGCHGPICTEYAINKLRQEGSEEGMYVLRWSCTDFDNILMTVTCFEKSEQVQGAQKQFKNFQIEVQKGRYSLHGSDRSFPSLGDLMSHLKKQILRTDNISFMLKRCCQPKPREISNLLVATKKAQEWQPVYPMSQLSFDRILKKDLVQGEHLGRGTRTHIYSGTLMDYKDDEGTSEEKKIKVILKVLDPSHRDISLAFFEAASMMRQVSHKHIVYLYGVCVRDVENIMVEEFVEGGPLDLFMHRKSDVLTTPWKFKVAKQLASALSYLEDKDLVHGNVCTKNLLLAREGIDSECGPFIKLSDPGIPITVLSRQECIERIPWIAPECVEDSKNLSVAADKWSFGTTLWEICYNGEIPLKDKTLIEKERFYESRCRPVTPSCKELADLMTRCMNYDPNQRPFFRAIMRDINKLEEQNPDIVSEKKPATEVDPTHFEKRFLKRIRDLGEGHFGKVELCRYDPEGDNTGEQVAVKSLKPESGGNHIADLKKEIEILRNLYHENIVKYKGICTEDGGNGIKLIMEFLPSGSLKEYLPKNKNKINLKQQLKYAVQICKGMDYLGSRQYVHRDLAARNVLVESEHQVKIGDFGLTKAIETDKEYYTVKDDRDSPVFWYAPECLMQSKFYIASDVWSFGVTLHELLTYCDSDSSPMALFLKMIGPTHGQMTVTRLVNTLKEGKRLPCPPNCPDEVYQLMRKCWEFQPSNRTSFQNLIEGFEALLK
# UniProt P53667: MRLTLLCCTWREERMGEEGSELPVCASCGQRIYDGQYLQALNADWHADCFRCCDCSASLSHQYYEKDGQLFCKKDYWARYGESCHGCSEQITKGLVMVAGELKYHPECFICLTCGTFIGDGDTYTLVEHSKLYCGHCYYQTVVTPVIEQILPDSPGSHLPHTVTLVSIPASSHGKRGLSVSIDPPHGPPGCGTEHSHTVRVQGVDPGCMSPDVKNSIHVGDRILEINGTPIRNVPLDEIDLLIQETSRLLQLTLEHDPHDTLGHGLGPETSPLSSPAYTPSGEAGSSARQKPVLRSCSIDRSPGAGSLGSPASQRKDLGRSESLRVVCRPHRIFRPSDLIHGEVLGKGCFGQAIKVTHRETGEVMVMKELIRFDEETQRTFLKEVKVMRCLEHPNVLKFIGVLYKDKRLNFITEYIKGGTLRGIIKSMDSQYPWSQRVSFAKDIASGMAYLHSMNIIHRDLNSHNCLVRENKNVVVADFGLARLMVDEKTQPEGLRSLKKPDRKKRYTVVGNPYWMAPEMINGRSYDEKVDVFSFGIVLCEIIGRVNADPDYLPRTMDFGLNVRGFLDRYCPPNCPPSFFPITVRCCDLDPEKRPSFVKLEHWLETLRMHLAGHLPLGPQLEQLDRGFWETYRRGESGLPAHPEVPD
# UniProt P53671: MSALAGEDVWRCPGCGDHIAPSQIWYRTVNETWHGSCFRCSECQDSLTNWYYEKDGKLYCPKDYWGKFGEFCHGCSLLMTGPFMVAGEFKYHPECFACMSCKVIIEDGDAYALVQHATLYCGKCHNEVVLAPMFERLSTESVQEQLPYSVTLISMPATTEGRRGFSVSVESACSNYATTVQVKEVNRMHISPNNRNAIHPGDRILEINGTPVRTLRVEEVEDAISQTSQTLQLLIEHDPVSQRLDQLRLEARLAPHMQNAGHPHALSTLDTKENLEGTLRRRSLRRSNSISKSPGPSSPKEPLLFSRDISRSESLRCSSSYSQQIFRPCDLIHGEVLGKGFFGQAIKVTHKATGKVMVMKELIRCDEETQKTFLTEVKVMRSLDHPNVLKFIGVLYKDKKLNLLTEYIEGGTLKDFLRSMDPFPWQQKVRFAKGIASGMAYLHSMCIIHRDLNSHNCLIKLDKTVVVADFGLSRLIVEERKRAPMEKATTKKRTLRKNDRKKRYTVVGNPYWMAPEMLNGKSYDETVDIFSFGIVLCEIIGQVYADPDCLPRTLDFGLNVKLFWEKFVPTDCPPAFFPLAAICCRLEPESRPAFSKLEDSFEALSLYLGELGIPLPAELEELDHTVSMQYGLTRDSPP
# Tests used:
# Test in all cases: number of time points (of 5) at which kinase-Nluc abundance scored as decreased, DMSO-normalised (count); higher = more persistent destabilization
# Settings in all cases: K562; 2-18 h
# [1] = molecular target: EPHA2 (UniProt P29317)
# [2] = molecular target: ERBB3 (UniProt P21860)
# [3] = molecular target: ERBB4_R711C (clone: ERBB4_mut) (UniProt Q15303)
# [4] = molecular target: ERN1 (UniProt O75460)
# [5] = molecular target: FGFR1 (UniProt P11362)
# [6] = molecular target: FGFR2 (UniProt P21802)
# [7] = molecular target: FGFR3 (UniProt P22607)
# [8] = molecular target: FGR (UniProt P09769)
# [9] = molecular target: FLT3 (UniProt P36888)
# [10] = molecular target: FYN (UniProt P06241)
# [11] = molecular target: GSK3A (UniProt P49840)
# [12] = molecular target: HER2 (UniProt P04626)
# [13] = molecular target: INSRR (UniProt P14616)
# [14] = molecular target: IRAK3 (UniProt Q9Y616)
# [15] = molecular target: JAK1 (UniProt P23458)
# [16] = molecular target: LCK (UniProt P06239)
# [17] = molecular target: LIMK1 (UniProt P53667)
# [18] = molecular target: LIMK2 (UniProt P53671)
Compound,number of time points [1],number of time points [2],number of time points [3],number of time points [4],number of time points [5],number of time points [6],number of time points [7],number of time points [8],number of time points [9],number of time points [10],number of time points [11],number of time points [12],number of time points [13],number of time points [14],number of time points [15],number of time points [16],number of time points [17],number of time points [18]
COc1cc2nc(C)nc(N[C@H](C)c3cc(N)cc(C(F)(F)F)c3)c2cc1O[C@H]1CCOC1 (10 µM),0,0,0,0,0,2,0,0,0,0,0,0,0,0,0,0,0,0
CCc1nc(-c2cccc(C)c2)c(-c2ccnc(NC(=O)c3ccccc3)c2)s1 (10 µM),0,0,0,0,0,0,0,0,0,0,0,0,0,0,0,0,0,0
N#C/C(=C\c1ccc(O)c(O)c1)C(=O)NCc1ccccc1 (10 µM),0,0,0,0,0,0,0,0,0,0,0,0,0,0,0,0,0,0
O=c1c(-c2ccc(O)cc2)coc2cc(O)cc(O)c12 [Genistein] (10 µM),0,0,0,0,0,0,0,0,0,0,0,0,0,0,0,0,0,0
N#CC(=Cc1ccc(O)c(O)c1)C(=O)NCc1ccccc1 (mixture of isomers) (10 µM),0,0,0,0,0,0,0,0,0,0,0,0,0,0,0,0,0,0
CCN1CCN(c2ccc(Nc3cc(N(C)C(=O)Nc4c(Cl)c(OC)cc(OC)c4Cl)ncn3)cc2)CC1 [Infigratinib] (10 µM),0,0,0,0,0,0,0,0,0,0,0,0,0,0,0,0,0,0
C[C@]1(O)C[C@@H](c2nc(-c3ccc4ccc(-c5ccccc5)nc4c3)c3c(N)nccn32)C1 [Linsitinib] (2.5 µM),0,0,0,0,0,0,0,0,0,0,0,0,0,0,0,0,0,0
N#C/C(=C\c1ccc(O)c(O)c1)C(=O)NCCCc1ccccc1 (10 µM),0,0,0,0,0,0,0,0,0,0,0,0,0,0,0,0,0,0
COc1ccc2c(NC(=O)Nc3cccc(C(F)(F)F)n3)ccnc2c1 (10 µM),0,0,0,0,0,0,0,0,0,0,0,0,0,0,0,0,0,0
COc1cc(Nc2ncc3c(n2)-c2ccc(Cl)cc2C(c2c(F)cccc2OC)=NC3)ccc1C(=O)O [Alisertib] (2.5 µM),0,0,0,0,0,0,0,0,0,0,0,0,0,0,0,,0,0
Cn1c(=O)c(Oc2ccc(F)cc2F)cc2cnc(NC3CCOCC3)nc21 [R1487 (Hydrochloride)] (10 µM),0,0,0,0,0,0,0,0,0,0,0,0,0,0,0,,0,0
COc1ccc(C=C(C#N)c2cccnc2)cc1OC (10 µM),0,0,0,0,0,0,0,0,0,0,0,0,0,0,0,0,0,0
N#Cc1ccc2[nH]c(O)c(-c3ccc(CN4CCOCC4)cn3)c2c1 (10 µM),0,0,0,0,0,0,0,0,0,0,0,0,0,0,0,0,0,0
C=CC(=O)Nc1ccc2ncnc(Nc3cccc(Br)c3)c2c1 (10 µM),0,0,2,0,0,3,0,0,0,1,0,0,1,4,0,0,0,0
Cc1cc(C)c(/C=C2\C(=O)Nc3ccccc32)[nH]1 [Semaxinib] (10 µM),0,0,0,0,0,0,0,0,0,0,0,0,0,0,0,,0,1
CCOc1ccn(-c2ccc(F)cc2)c(=O)c1C(=O)Nc1ccc(Oc2ccnc(N)c2Cl)c(F)c1 (10 µM),0,3,3,2,2,2,0,0,1,2,0,1,5,1,2,,0,0
CC(=O)NCC(=O)N1[C@@H]2CC[C@H]1c1ccc(Nc3ncc(C(F)(F)F)c(NC4CCC4)n3)cc12 (2.5 µM),2,4,4,0,2,3,2,0,1,3,1,3,1,3,1,0,4,0
Nc1ncnc2c1c(-c1cccc(OCc3ccccc3)c1)cn2C1CC(CN2CCCC2)C1 (stereo unspecified) (2.5 µM),0,0,0,0,0,0,0,0,0,0,0,0,0,0,0,0,0,0
CNc1nc(-c2ccc3c(N)n[nH]c3c2)cc(N2C[C@@H](C(=O)NC3CCCCC3)CC[C@H]2C)n1 (10 µM),0,0,0,0,0,0,0,0,0,0,0,0,0,0,0,0,0,0
Cc1c(C(=O)N2CCOc3ccc(-c4ccc(N)nc4)cc3C2)ccc(S(C)(=O)=O)c1F (10 µM),0,0,3,0,0,3,0,0,0,0,0,0,0,0,0,0,2,0
CNC(=O)c1ccccc1Nc1nc(Nc2ccc(N3CCOCC3)cc2OC)ncc1Cl (2.5 µM),0,0,0,0,0,0,0,0,0,0,0,0,0,0,0,,0,0
O=c1cc(N2CCOCC2)oc2c(-c3ccccc3)cccc12 (10 µM),0,0,0,0,0,0,0,0,0,0,0,0,0,0,0,,0,0
O=c1oc2ccccc2c(O)c1Cc1c(O)c2ccccc2oc1=O [Dicoumarol] (10 µM),0,0,0,0,0,0,0,0,0,0,0,1,0,0,0,,0,0
CCN(CC)CCCCNc1ncc2cc(-c3cc(OC)cc(OC)c3)c(NC(=O)NC(C)(C)C)nc2n1 (10 µM),0,0,0,0,,0,0,0,0,0,0,0,0,0,0,0,0,2
Cc1cc(N2CCOCC2)cc2[nH]c(-c3c(NC[C@@H](O)c4cccc(Cl)c4)cc[nH]c3=O)nc12 (10 µM),0,3,3,0,0,3,0,0,0,4,0,0,2,2,0,,4,1

# Retrieved by structure from the entries so far:
Compound,number of time points [1],number of time points [2],number of time points [3],number of time points [4],number of time points [5],number of time points [6],number of time points [7],number of time points [8],number of time points [9],number of time points [10],number of time points [11],number of time points [12],number of time points [13],number of time points [14],number of time points [15],number of time points [16],number of time points [17],number of time points [18]
O=c1cc(N2CCOCC2)oc2c(-c3ccccc3)cccc12 (10 µM),0,0,0,0,0,0,0,0,0,0,0,0,0,0,0,,0,0
N#CC(=Cc1ccc(O)c(O)c1)C(=O)NCc1ccccc1 (mixture of isomers) (10 µM),0,0,0,0,0,0,0,0,0,0,0,0,0,0,0,0,0,0
